Results: patent publication EP1464649A2, “Sugar derivatives comprising oxiranes or alpha,beta-unsaturated gamma-lactones, process for their preparation and their utilisation as pesticides” (Instituto Politécnico de Santarém / Escola Superior Agraria, priority 2003, dated 2004)

Tests used:
[1] = system: adult fruit fly (D. melanogaster); assay: Method A: topical treatment of adult fruit fly; assay type: in vivo, Drosophila melanogaster; settings: slope of log-probit regression line
Procedure: A culture of fruit flies (D. melanogaster) was used in the production of adult flies (approx 0.22 mg) of about seven days.
Serial dilutions of the compounds were prepared in acetone, and volumes of approximately 0.2 µL were applied to the ventral surface of each insect, using a calibrated PAX 100 microapplicator and a 1 mL syringe.
The fruit flies, in groups of 5, were anaesthetised using carbon dioxide. Prior to recovery the flies were placed in a containing vial and kept at 30±1°C, for observations of mortality at 1, 2, 3 and 24 hours after treatment.
For this purpose solutions of 6 different concentrations and a control were employed in groups of 12 and 20 insects. Control mortalities were normally zero but occasionally rose to 5-10%.
(§1) Dosages used in insect treatments were based upon the amount of compound applied to each insect. For the shrimps the final concentrations of the compounds in the immersion brine were used.
(§2) The 24 hour mortalities were used to calculate the LD50/LC50 using regression analysis of the probability percent mortality (probit) against log dose/concentration.^30 This was calculated using PoloPC software (LeOra Software, Berkeley, CA, 1994).

[2] = system: brine shrimp A. salina larvae; assay type: in vivo; settings: Method F, slope of log-probit regression line
Procedure: Freshly hatched brine shrimps were prepared by adding aquarium brine shrimp eggs to salt water (15 g sea salt per litre water). The following day hatchlings were separated from eggs and empty egg cases, using their phototropic movement and a Pasteur pipette.
Into each of a set of small glass vials was pipetted 195 µL of brine containing 5 shrimp larvae, using a micropipette. The solution of the test compound in 5 µL acetone was added, the vial closed and kept at 30±1°C for observation.
Dead and alive shrimps were counted, at 1 and 24 hours after treatment, using a microscope. Six concentrations and a control were used with 10 shrimps treated.
A blank test was performed for comparison of the results.
as §1, §2

Compound | Slope [1] | Slope [2]
COC1OC(C2CC(C)([Se]c3ccccc3)C(=O)O2)C2OC12 [Compound 6, methyl (7R)-/(7S)-2,3-anhydro-6,7-dideoxy-7-methyl-7-phenylselenyl-β-L-gulo-octofuranurono-8,5-lactone] | 0.696±0.155 | 10.275±2.421
Methyl 2,3;5,6-Dianhydro-β-L-gulofuranoside [Compound 9] | 0.326±0.106 | 8.734±1.862
